Results as given in publication PMC9857342.
No constants are given. Whether binding was seen depends on the method and setting. In cells and extracts the contact can be indirect. Some entries that bind do so weakly or less than the wild type. For part of these data: Where a sequence is shown, tags or fusion partners need not be part of it.

Protein sequences, listed by entry. Tags and fused reporters are not part of them. Residues count along the entry.
UniProt P02545, residues 1-646: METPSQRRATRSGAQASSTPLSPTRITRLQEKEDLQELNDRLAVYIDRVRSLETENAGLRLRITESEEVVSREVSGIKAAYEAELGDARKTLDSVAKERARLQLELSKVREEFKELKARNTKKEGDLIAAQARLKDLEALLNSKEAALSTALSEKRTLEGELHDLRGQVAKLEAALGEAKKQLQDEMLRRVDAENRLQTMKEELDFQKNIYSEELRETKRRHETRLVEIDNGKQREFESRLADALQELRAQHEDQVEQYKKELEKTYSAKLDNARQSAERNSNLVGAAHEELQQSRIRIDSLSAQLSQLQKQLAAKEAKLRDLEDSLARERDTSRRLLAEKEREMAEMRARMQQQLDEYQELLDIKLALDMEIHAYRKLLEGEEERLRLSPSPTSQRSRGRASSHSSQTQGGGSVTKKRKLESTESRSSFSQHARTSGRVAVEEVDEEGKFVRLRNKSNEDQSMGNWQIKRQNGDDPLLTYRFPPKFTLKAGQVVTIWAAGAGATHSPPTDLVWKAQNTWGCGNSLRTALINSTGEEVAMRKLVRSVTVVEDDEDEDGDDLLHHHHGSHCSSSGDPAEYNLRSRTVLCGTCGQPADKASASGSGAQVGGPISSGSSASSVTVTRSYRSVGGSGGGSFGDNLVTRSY

Assays:
[1] = target: T1, LAP2α WT-DDK (human LAP2α, amino acids 1-694, myc-DDK tag) (human) (UniProt P42166); assay: proximity ligation; in situ PLA between LAP2α-DDK and lamin A/C; data not shown; cells not given
T1 sequence: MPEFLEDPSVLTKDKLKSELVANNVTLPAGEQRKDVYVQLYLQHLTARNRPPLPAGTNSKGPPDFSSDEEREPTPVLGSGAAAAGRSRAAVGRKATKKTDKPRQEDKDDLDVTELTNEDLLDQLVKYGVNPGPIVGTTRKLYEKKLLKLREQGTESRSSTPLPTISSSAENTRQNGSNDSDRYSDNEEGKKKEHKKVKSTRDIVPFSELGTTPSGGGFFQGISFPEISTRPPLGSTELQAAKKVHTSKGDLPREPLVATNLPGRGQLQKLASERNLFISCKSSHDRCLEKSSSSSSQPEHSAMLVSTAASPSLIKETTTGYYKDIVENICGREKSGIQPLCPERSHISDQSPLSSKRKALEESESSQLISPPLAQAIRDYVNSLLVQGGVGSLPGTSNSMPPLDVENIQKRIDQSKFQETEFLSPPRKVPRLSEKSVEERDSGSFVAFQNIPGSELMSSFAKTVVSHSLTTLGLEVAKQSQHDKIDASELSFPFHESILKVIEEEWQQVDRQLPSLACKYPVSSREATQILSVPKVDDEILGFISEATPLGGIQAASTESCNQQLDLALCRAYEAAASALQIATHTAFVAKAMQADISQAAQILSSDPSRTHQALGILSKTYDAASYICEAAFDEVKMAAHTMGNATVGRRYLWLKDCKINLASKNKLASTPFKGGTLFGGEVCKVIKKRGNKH

[2] = target: T2, LAP2α p.(Ala240Thr)-DDK (human) (UniProt P42166); assay: as above
T2 sequence: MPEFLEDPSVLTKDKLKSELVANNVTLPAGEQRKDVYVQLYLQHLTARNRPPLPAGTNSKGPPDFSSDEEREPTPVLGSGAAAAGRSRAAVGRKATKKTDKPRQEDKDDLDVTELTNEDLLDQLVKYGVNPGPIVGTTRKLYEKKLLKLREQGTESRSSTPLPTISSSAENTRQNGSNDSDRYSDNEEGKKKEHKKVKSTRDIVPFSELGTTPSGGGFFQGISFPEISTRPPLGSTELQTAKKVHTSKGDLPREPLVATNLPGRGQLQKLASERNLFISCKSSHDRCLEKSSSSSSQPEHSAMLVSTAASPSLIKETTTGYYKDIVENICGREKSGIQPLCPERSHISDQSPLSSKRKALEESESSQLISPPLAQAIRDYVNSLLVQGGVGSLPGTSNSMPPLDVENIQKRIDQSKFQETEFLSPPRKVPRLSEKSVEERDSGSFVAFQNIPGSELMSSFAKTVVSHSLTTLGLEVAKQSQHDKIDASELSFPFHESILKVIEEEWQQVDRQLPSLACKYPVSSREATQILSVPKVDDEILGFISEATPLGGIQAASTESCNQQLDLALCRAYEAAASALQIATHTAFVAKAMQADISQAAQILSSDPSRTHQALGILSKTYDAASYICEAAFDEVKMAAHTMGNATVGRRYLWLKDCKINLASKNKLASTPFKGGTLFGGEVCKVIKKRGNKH

[3] = target: T3, LAP2α p.(Arg690Cys)-DDK (human) (UniProt P42166); assay: as above
T3 sequence: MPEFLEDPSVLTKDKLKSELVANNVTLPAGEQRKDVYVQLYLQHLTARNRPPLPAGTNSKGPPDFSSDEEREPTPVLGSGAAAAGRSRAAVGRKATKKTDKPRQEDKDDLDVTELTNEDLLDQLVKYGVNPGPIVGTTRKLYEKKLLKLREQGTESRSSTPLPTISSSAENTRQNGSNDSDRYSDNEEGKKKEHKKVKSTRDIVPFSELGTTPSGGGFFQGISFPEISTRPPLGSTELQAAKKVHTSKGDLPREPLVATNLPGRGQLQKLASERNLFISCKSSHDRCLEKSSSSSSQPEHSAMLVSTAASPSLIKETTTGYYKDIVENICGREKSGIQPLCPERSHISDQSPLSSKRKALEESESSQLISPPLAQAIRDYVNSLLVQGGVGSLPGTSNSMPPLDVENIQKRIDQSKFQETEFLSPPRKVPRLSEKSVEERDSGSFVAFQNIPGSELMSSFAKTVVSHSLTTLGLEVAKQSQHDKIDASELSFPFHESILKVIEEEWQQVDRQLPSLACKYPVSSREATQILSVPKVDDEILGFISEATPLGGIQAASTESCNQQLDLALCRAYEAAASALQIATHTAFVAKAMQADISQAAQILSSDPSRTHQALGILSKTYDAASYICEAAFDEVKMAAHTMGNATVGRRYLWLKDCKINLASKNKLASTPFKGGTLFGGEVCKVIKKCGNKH

[4] = target: T1, LAP2α WT-DDK (human LAP2α, amino acids 1-694, myc-DDK tag) (human); assay: proximity ligation; in situ PLA in HEK293 cells transfected with LAP2α-DDK; antibodies against DDK and endogenous HMGN5; mean nuclear PLA signal intensity on confocal images
[5] = target: T2, LAP2α p.(Ala240Thr)-DDK (human); assay: as above
[6] = target: T3, LAP2α p.(Arg690Cys)-DDK (human); assay: as above
[7] = target: T1, LAP2α WT-DDK (human LAP2α, amino acids 1-694, myc-DDK tag) (human); assay: proximity ligation; in situ PLA in HEK293 cells expressing LAP2α-DDK; antibodies against DDK and endogenous BAF; mean PLA signal intensity per nucleus
[8] = target: T4, LAP2α p.(Leu124Phe)-DDK (human) (UniProt P42166); assay: as above
T4 sequence: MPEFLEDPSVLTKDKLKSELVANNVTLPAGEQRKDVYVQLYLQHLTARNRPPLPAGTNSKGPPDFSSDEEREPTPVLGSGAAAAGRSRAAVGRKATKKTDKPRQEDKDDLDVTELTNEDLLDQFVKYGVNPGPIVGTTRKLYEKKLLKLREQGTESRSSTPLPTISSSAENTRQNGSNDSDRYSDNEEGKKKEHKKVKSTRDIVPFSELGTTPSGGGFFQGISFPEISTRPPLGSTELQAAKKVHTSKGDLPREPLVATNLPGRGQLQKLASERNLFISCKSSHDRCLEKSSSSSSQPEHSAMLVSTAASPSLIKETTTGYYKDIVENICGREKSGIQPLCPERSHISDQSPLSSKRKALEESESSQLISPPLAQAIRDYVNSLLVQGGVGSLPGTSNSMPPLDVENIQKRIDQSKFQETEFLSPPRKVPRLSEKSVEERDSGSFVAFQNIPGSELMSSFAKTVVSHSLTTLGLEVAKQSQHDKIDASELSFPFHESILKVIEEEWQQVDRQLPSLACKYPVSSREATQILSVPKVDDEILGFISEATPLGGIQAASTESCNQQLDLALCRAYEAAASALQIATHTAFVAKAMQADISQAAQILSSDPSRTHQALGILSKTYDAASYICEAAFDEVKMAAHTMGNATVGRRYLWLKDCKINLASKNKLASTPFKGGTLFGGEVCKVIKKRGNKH

[9] = target: T1, LAP2α WT-DDK (human LAP2α, amino acids 1-694, myc-DDK tag) (human); assay: proximity ligation; in situ PLA in H9C2 cells expressing LAP2α-DDK; antibodies against DDK and endogenous BAF; mean PLA signal intensity per nucleus
[10] = target: T4, LAP2α p.(Leu124Phe)-DDK (human); assay: as above
[11] = target: T1, LAP2α WT-DDK (human LAP2α, amino acids 1-694, myc-DDK tag) (human); assay: proximity ligation; in situ PLA in HEK293 cells co-expressing LAP2α-DDK or LAP2β-DDK and HA-BAF; antibodies against DDK and HA; mean PLA signal intensity per nucleus
[12] = target: T4, LAP2α p.(Leu124Phe)-DDK (human); assay: as above
[13] = target: T5, LAP2β WT-DDK (human LAP2β, amino acids 1-454, myc-DDK tag) (human) (UniProt P42167); assay: as above
T5 sequence: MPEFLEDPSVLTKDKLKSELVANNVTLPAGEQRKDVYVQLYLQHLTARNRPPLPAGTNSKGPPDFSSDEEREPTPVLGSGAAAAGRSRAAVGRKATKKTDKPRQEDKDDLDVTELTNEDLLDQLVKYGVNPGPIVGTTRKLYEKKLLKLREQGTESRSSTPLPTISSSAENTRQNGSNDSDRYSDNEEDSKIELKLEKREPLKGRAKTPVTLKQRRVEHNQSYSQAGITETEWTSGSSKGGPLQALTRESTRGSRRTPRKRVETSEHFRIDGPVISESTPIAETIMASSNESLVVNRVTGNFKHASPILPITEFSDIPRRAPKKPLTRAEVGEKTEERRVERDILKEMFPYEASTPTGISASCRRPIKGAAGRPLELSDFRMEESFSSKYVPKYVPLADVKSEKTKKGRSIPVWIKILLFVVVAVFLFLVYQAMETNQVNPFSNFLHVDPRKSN

[14] = target: T6, LAP2β p.(Leu124Phe)-DDK (human) (UniProt P42167); assay: as above
T6 sequence: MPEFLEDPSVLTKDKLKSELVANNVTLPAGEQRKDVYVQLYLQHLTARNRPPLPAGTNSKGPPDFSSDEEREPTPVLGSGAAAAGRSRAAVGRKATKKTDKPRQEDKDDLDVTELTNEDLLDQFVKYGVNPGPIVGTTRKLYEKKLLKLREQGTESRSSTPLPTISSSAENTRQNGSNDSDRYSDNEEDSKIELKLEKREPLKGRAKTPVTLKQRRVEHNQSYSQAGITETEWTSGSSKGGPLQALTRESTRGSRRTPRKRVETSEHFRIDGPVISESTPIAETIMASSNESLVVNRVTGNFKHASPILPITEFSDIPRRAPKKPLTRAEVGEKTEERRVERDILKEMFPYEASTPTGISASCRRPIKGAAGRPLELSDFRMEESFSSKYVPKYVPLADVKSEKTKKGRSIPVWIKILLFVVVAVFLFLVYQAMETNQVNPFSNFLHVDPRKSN

[15] = target: T5, LAP2β WT-DDK (human LAP2β, amino acids 1-454, myc-DDK tag) (human); assay: co-IP; HEK293 cells co-expressing LAP2β-DDK and HA-BAF; lysis in 25 mM Tris-HCl pH 7.4, 137 mM NaCl, 2.5 mM KCl, 1% Triton, sonicated; first round with mouse anti-HA and protein G plus agarose, supernatants then on anti-FLAG M2 affinity gel; 4 °C; immunoblot

Measured: binding

lamin A/C (from UniProt P02545 1-646)
binds: [1] | [2] | [3]

B1: endogenous HMGN5 of HEK293 cells (protein, UniProt P82970 1-282)
chain: MPKRKAAGQGDMRQEPKRRSARLSAMLVPVTPEVKPKRTSSSRKMKTKSDMMEENIDTSAQAVAETKQEAVVEEDYNENAKNGEAKITEAPASEKEIVEVKEENIEDATEKGGEKKEAVAAEVKNEEEDQKEDEEDQNEEKGEAGKEDKDEKGEEDGKEDKNGNEKGEDAKEKEDGKKGEDGKGNGEDGKEKGEDEKEEEDRKETGDGKENEDGKEKGDKKEGKDVKVKEDEKEREDGKEDEGGNEEEAGKEKEDLKEEEEGKEEDEIKEDDGKKEEPQSIV
binds: [4] | [5] | [6]

B2: endogenous BAF of HEK293 cells (protein, UniProt O75531 1-89)
chain: MTTSQKHRDFVAEPMGEKPVGSLAGIGEVLGKKLEERGFDKAYVVLGQFLVLKKDEDLFREWLKDTCGANAKQSRDCFGCLREWCDAFL
binds: [7] | [8]

B3: endogenous BAF of H9C2 cells (protein, UniProt Q9R1T1 1-89)
chain: MTTSQKHRDFVAEPMGEKPVGSLAGIGDALGKRLEERGFDKAYVVLGQFLVLKKDEDLFREWLKDTCGANAKQSRDCFGCLREWCDAFL
binds: [9] | [10]

B4: HA-BAF (barrier autointegration factor, HA-tagged) (protein, UniProt O75531 1-89)
chain: MTTSQKHRDFVAEPMGEKPVGSLAGIGEVLGKKLEERGFDKAYVVLGQFLVLKKDEDLFREWLKDTCGANAKQSRDCFGCLREWCDAFL
binds: [11] | [12] | [13] | [14] | [15]
